From article PMC11476017, “A Lincomycin-Specific Antibody Was Developed Using Hapten Prediction, and an Immunoassay Was Established to Detect Lincomycin in Pork and Milk” (Foods, 2024)

Tested on: T1, monoclonal antibody 1B11 (LIN/1B11)
T1 construct: whole monoclonal antibody, IgG1
Assay: indirect competitive ELISA, cross-reactivity relative to LIN

| SMILES | % cross-reactivity |
| --- | --- |
| CCC[C@@H]1C[C@@H](C(=O)N[C@@H]([C@H]2O[C@H](SC)[C@H](O)[C@@H](O)[C@H]2O)[C@H](C)Cl)N(C)C1 [CLIN, Clindamycin] | 2.8 % cross-reactivity |
| CC[C@@H]1CCN[C@H](C(=O)N[C@@H]([C@H]2O[C@H](SC)[C@H](O)[C@@H](O)[C@H]2O)[C@H](C)Cl)C1 [PIR, Pirimicin] | 2.4 % cross-reactivity |
